In paper PMC10826163:
Results are given in words; binding and its absence hold for the method and conditions named. In cells and extracts the contact can be indirect. Binding can be weak; no strength is given. Values belong to the binder of their own block, whether it stands above or below them.

Biological target: Traf2-and NcK-interacting kinase (rat (endogenous in rat hippocampus))
Test: co-IP; rat hippocampal tissue homogenised in IP buffer with protease and phosphatase inhibitors; mouse anti-TNIK or normal mouse IgG at 4 °C overnight, protein G-agarose 3 h, five washes; Western blot with the respective antibody

binding: binds
B1: CaMKIV (protein, UniProt P13234 1-474)
chain: MLKVTVPSCPSSPCSSVTSSTENLVPDYWIDGSKRDPLSDFFEVESELGRGATSIVYRCKQKGTQKPYALKVLKKTVDKKIVRTEIGVLLRLSHPNIIKLKEIFETPTEISLVLELVTGGELFDRIVEKGYYSERDAADAVKQILEAVAYLHENGIVHRDLKPENLLYATPAPDAPLKIADFGLSKIVEHQVLMKTVCGTPGYCAPEILRGCAYGPEVDMWSVGIITYILLCGFEPFYDERGDQFMFRRILNCEYYFISPWWDEVSLNAKDLVKKLIVLDPKKRLTTFQALQHPWVTGKAANFVHMDTAQKKLQEFNARRKLKAAVKAVVASSRLGSASSSHTNIQESNKASSEAQPAQDGKDKTDPLENKMQAGDHEAAKAAADETMKLQSEEVEEEEGVKEEEEEEEEEEETSRMVPQEPEDRLETDDQEMKRNSEETLKSVEEEMDPKAEEEAAAVGLGVPPQQDAILPEY

binding: no binding
B2: vGlut1 (protein, UniProt Q62634 1-560)
chain: MEFRQEEFRKLAGRALGRLHRLLEKRQEGAETLELSADGRPVTTHTRDPPVVDCTCFGLPRRYIIAIMSGLGFCISFGIRCNLGVAIVSMVNNSTTHRGGHVVVQKAQFNWDPETVGLIHGSFFWGYIVTQIPGGFICQKFAANRVFGFAIVATSTLNMLIPSAARVHYGCVIFVRILQGLVEGVTYPACHGIWSKWAPPLERSRLATTAFCGSYAGAVVAMPLAGVLVQYSGWSSVFYVYGSFGIFWYLFWLLVSYESPALHPSISEEERKYIEDAIGESAKLMNPVTKFNTPWRRFFTSMPVYAIIVANFCRSWTFYLLLISQPAYFEEVFGFEISKVGLVSALPHLVMTIIVPIGGQIADFLRSRHIMSTTNVRKLMNCGGFGMEATLLLVVGYSHSKGVAISFLVLAVGFSGFAISGFNVNHLDIAPRYASILMGISNGVGTLSGMVCPIIVGAMTKHKTREEWQYVFLIASLVHYGGVIFYGVFASGEKQPWAEPEEMSEEKCGFVGHDQLAGSDESEMEDEVEPPGAPPAPPPSYGATHSTVQPPRPPPPVRDY
